Assay results from PMC2856670.
No constants are given. Whether binding was seen depends on the method and setting. In cells and extracts the contact can be indirect. Here binding means that the protein was enriched with, or labelled near, the bait; the list need not be complete. For some assays here: Tags and fused reporters may be left off the sequences shown.

Chains of the proteins cited; added tags and fusions are not shown.
UniProt P40160: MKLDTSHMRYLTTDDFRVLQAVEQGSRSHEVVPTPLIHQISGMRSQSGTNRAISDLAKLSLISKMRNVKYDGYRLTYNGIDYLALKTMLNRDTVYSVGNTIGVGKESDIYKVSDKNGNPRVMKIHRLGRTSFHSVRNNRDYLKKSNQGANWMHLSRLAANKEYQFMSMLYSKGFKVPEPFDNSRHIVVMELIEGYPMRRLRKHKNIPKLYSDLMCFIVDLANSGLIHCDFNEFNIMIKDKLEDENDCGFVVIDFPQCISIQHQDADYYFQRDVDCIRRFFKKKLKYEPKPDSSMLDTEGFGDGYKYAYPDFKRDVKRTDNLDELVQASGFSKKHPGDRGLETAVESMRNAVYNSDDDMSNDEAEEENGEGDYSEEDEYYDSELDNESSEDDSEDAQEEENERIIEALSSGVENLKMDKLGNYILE

Key:
[1] = target: TAP-tagged Rio2p (S. cerevisiae) (UniProt P40160); test: affinity purification with mass spectrometry; Rio2-TAP associated SSU precursors purified on rabbit IgG magnetic beads (1 h, 4°C, buffer MB) from strain ToY1739 expressing HA-tagged full length rpS5 or rpS5-ΔC after shut down of GAL-RPS5; iTRAQ-labelled tryptic peptides compared semi-quantitatively
[2] = target: T1, FLAG-tagged rpS5-ΔC (S. cerevisiae ribosomal protein S5 lacking the seven C-terminal amino acids) (S. cerevisiae) (UniProt P26783); test: affinity purification with mass spectrometry; FLAG-rpS5-ΔC and associated RNPs purified on anti-FLAG M2 beads (90 min, 4°C) from strain ToY323 with ToP1101 after 2 h shut down of GAL-RPS5 in glucose; washed with A200 (200 mM KCl, 20 mM Tris-HCl pH 8.0, 5 mM MgAc) plus 0.2% Triton; tryptic peptides by nano-HPLC and MALDI-TOF/TOF
T1 sequence: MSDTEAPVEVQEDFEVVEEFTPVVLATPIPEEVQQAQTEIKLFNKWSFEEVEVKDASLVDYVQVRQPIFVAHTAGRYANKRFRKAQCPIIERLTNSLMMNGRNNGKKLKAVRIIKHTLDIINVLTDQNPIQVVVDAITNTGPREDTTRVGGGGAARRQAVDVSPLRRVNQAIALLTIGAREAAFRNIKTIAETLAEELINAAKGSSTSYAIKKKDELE

binding [1]: binds | binding [2]: binds
B1: Nob1p (protein, UniProt Q08444 1-459)
chain: MTENQTAHVRALILDATPLITQSYTHYQNYAQSFYTTPTVFQEIKDAQARKNLEIWQSLGTLKLVHPSENSIAKVSTFAKLTGDYSVLSANDLHILALTYELEIKLNNGDWRLRKKPGDALDASKADVGTDGKQKLTEDNKKEEDSESVPKKKNKRRGGKKQKAKREAREAREAENANLELESKAEEHVEEAGSKEQICNDENIKESSDLNEVFEDADDDGDWITPENLTEAIIKDSGEDTTGSLGVEASEEDRHVALNRPENQVALATGDFAVQNVALQMNLNLMNFMSGLKIKRIRNYMLRCHACFKIFPLPKDGKPKHFCASCGGQGTLLRCAVSVDSRTGNVTPHLKSNFQWNNRGNRYSVASPLSKNSQKRYGKKGHVHSKPQENVILREDQKEYEKVIKQEEWTRRHNEKILNNWIGGGSADNYISPFAITGLKQHNVRIGKGRYVNSSKRRS
